This experiment deals with T1, full length membrane-bound human LDCAM on transfected CV1/EBNA cells (human) (UniProt Q9BY67).
T1 sequence: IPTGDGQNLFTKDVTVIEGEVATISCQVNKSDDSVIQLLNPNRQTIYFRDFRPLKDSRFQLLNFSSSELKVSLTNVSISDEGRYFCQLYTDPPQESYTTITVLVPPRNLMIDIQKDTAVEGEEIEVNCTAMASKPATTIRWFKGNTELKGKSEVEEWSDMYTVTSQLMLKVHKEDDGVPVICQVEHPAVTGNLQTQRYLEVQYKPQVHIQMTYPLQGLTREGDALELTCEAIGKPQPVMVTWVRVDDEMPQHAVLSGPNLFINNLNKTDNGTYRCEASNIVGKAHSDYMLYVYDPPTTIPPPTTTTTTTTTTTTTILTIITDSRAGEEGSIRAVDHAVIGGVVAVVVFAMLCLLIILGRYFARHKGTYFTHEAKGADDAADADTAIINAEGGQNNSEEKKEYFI
In words: cell binding and FACS with LDCAM/Fc fusion protein.

No constants are given. Whether binding was seen depends on the method and setting. Some entries that bind do so weakly or less than the wild type. Where a sequence is shown, tags or fusion partners need not be part of it.

B1: human LDCAM/Fc fusion protein (Fc fusion, not shown: a dimerising Fc or GST)
chain: IPTGDGQNLFTKDVTVIEGEVATISCQVNKSDDSVIQLLNPNRQTIYFRDFRPLKDSRFQLLNFSSSELKVSLTNVSISDEGRYFCQLYTDPPQESYTTITVLVPPRNLMIDIQKDTAVEGEEIEVNCTAMASKPATTIRWFKGNTELKGKSEVEEWSDMYTVTSQLMLKVHKEDDGVPVICQVEHPAVTGNLQTQRYLEVQYKPQVHIQMTYPLQGLTREGDALELTCEAIGKPQPVMVTWVRVDDEMPQHAVLSGPNLFINNLNKTDNGTYRCEASNIVGKAHSDYMLYVYDPPTTIPPPTTTTTTTTTTTTTILTIITDSRAGEEGSIRAVDH
modifications: Forms a disulfide-linked dimer through the Fc.
With B1, the binding entry is “binds”.
